Publication PMC5688130
These are yes or no findings as the source states them, for the method shown.

Assays:
[1] = target: human CDC73(1–111) (human) (UniProt Q6P1J9); assay: SEC + AUC; sedimentation velocity at 20 °C, 60 krpm, 20 mM Tris pH7.5, 400 mM NaCl, A280 ~0.7; self-association of the fragment tested; both purified
[2] = target: human CDC73(1–100) (human) (UniProt Q6P1J9); assay: as above

Row | Substance | binding [1] | binding [2]
1 | human CDC73(1–111) (from UniProt Q6P1J9 1-111) (domain or fragment) | no binding (tested: A280 absorbance of ~0.7) | 
2 | human CDC73(1–100) (from UniProt Q6P1J9 1-100) (domain or fragment) |  | no binding (tested: A280 absorbance of ~0.7)
